According to paper PMC7840129, “Structural basis for heme-dependent NCoR binding to the transcriptional repressor REV-ERBβ” (Science Advances, 2021):
Results are given in words; binding and its absence hold for the method and conditions named. Some entries that bind do so weakly or less than the wild type. Blank lines part the entries; values can stand above or below the binder they belong to.

Assays:
[1] = target: T1, human REV-ERBβ ligand-binding domain (residues 381 to 579) (human) (UniProt Q14995); assay: cross-linking; DSSO (600 μM), 4 μM apo or heme-bound LBD alone, without RID; 25 mM Hepes pH 7.5, 50 mM NaCl, 0.5 mM TCEP; 25°C, 45 min; SDS-PAGE; both purified
T1 sequence: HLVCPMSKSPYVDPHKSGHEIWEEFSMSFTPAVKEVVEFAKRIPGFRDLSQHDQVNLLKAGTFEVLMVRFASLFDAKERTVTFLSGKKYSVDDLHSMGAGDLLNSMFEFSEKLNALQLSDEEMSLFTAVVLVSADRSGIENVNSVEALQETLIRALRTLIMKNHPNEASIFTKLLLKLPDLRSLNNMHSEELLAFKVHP

[2] = target: T1, human REV-ERBβ ligand-binding domain (residues 381 to 579) (human); assay: crystal structure; LBD with 2 molar equivalents of heme and 5 molar equivalents of ID1 or ID2 peptide; sitting drop, 22°C; both purified
[3] = target: T1, human REV-ERBβ ligand-binding domain (residues 381 to 579) (human); assay: NMR titration; 2D [1H,15N]-TROSY-HSQC of 15N-labelled apo LBD (200 μM) titrated with ID1 or ID2 peptide; 298 K; 20 mM Hepes pH 7.4, 50 mM NaCl, 0.5 mM EDTA; both purified
[4] = target: T1, human REV-ERBβ ligand-binding domain (residues 381 to 579) (human); assay: NMR titration; 2D [1H,15N]-TROSY-HSQC of 15N-labelled heme-bound LBD (200 μM, 1.25 molar equivalents of heme) titrated with ID1 or ID2 peptide; 298 K; 20 mM Hepes pH 7.4, 50 mM NaCl, 0.5 mM EDTA; both purified

binding [1]: binds weakly
B1: human REV-ERBβ ligand-binding domain (residues 381 to 579) (domain or fragment, UniProt Q14995 381-579, looked up)
chain: T1 sequence
notes: cloned into pET46; Used ligand-free (apo) or loaded with heme (a small molecule; 1.05 to 2 molar equivalents); the two states are told apart by the assays; also called REV-ERBβ LBD; LBD; source: E. coli BL21(DE3), purified (IMAC, 3C protease cleavage, size exclusion); 15N-labelled in M9 minimal media for NMR; not shown: 6xHis, N-terminal, cleaved

binding [2]: binds
binding [3]: binds
binding [4]: binds
Binder: RTHRLITLADHICQIITQDFARN (N-terminal amidation and C-terminal acetylation (so in the source)) [NCoR ID1 peptide]
